# Measured values: the supplement of paper PMC8728848
# Some of the results follow.
# B1: EUL D1A second (Oryza sativa) (protein)
# chain: GAATACTIGGVPVHTVRVFSAAGEDYCLTVRNGTACLAPKNPRDDYQHWIKDMRHSNKIRDEEGYPAFALVNKVTGEAIKHSTGQGHPVKLVPYNPEYQDESVLWTESKDVGKGFRCIRMVNNIYLNFDAFHGDKDHGGIHDGTEIVLWKWCEGDNQRWKILPWILEQKLISEEDLNSAVDHHHHHH
# Tests used:
# Assay in all cases: glycan array binding signal (z-score within array); higher = stronger binding
# Conditions in all cases: glycan notation: IUPAC condensed, linker removed
# [1] = biological target: Gal(b1-4)Glc
# Outline: (§1)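 Negative Z-scores can be read as non-binding. The Z-score is calculated within each array and then averaged across arrays of one protein sequence at different concentrations or buffers and across linkers. Arrays, 3228 in all, were curated from the Consortium for Functional Glycomics database and kept only where the protein sequence was available.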
# [2] = biological target: Gal(b1-4)Glc6S
# Outline: as §1
# [3] = biological target: Gal(b1-4)GlcNAc
# Outline: as §1
# [4] = biological target: Gal(b1-4)GlcNAc(a1-6)Gal(b1-4)GlcNAc
# Outline: as §1
# [5] = biological target: Gal(b1-4)GlcNAc(b1-2)Man
# Outline: as §1
# [6] = biological target: Gal(b1-4)GlcNAc(b1-2)Man(a1-3)Man(b1-4)GlcNAc(b1-4)GlcNAc
# Outline: as §1
# [7] = biological target: Gal(b1-4)GlcNAc(b1-2)Man(a1-3)[Gal(b1-4)GlcNAc(b1-2)Man(a1-6)]Man(b1-4)GlcNAc(b1-4)GlcNAc
# Outline: as §1
# [8] = biological target: Gal(b1-4)GlcNAc(b1-2)Man(a1-3)[Gal(b1-4)GlcNAc(b1-2)Man(a1-6)]Man(b1-4)GlcNAc(b1-4)[Fuc(a1-6)]GlcNAc
# Outline: as §1
# [9] = biological target: Gal(b1-4)GlcNAc(b1-2)Man(a1-3)[Gal(b1-4)GlcNAc(b1-2)Man(a1-6)][Gal(b1-4)GlcNAc(b1-4)]Man(b1-4)GlcNAc(b1-4)[Fuc(a1-6)]GlcNAc
# Outline: as §1
# [10] = biological target: Gal(b1-4)GlcNAc(b1-2)Man(a1-3)[Gal(b1-4)GlcNAc(b1-2)Man(a1-6)][GlcNAc(b1-4)]Man(b1-4)GlcNAc(b1-4)[Fuc(a1-6)]GlcNAc
# Outline: as §1
# [11] = biological target: Gal(b1-4)GlcNAc(b1-2)Man(a1-3)[GlcNAc(b1-2)Man(a1-6)]Man(b1-4)GlcNAc(b1-4)GlcNAc
# Outline: as §1
# [12] = biological target: Gal(b1-4)GlcNAc(b1-2)Man(a1-3)[GlcNAc(b1-4)][Gal(b1-4)GlcNAc(b1-2)Man(a1-6)]Man(b1-4)GlcNAc(b1-4)GlcNAc
# Outline: as §1
# [13] = biological target: Gal(b1-4)GlcNAc(b1-2)Man(a1-3)[Man(a1-6)]Man(b1-4)GlcNAc(b1-4)GlcNAc
# Outline: as §1
# [14] = biological target: Gal(b1-4)GlcNAc(b1-2)Man(a1-6)Man(b1-4)GlcNAc(b1-4)GlcNAc
# Outline: as §1
# [15] = biological target: Gal(b1-4)GlcNAc(b1-2)Man(a1-6)[GlcNAc(b1-2)Man(a1-3)]Man(b1-4)GlcNAc(b1-4)GlcNAc
# Outline: as §1
# [16] = biological target: Gal(b1-4)GlcNAc(b1-2)Man(a1-6)[Man(a1-3)]Man(b1-4)GlcNAc(b1-4)GlcNAc
# Outline: as §1
# [17] = biological target: Gal(b1-4)GlcNAc(b1-2)[Gal(b1-4)GlcNAc(b1-4)]Man(a1-3)[Gal(b1-4)GlcNAc(b1-2)Man(a1-6)]Man(b1-4)GlcNAc(b1-4)GlcNAc
# Outline: as §1
# [18] = biological target: Gal(b1-4)GlcNAc(b1-2)[Gal(b1-4)GlcNAc(b1-4)]Man(a1-3)[Gal(b1-4)GlcNAc(b1-2)[Gal(b1-4)GlcNAc(b1-6)]Man(a1-6)]Man(b1-4)GlcNAc(b1-4)GlcNAc
# Outline: as §1
# [19] = biological target: Gal(b1-4)GlcNAc(b1-2)[Gal(b1-4)GlcNAc(b1-4)]Man(a1-3)[GlcNAc(b1-4)][Gal(b1-4)GlcNAc(b1-2)Man(a1-6)]Man(b1-4)GlcNAc(b1-4)GlcNAc
# Outline: as §1
# [20] = biological target: Gal(b1-4)GlcNAc(b1-2)[Gal(b1-4)GlcNAc(b1-4)]Man(a1-3)[GlcNAc(b1-4)][Gal(b1-4)GlcNAc(b1-2)[Gal(b1-4)GlcNAc(b1-6)]Man(a1-6)]Man(b1-4)GlcNAc(b1-4)GlcNAc
# Outline: as §1
# [21] = biological target: Gal(b1-4)GlcNAc(b1-2)[Gal(b1-4)GlcNAc(b1-6)]Man(a1-6)[Gal(b1-4)GlcNAc(b1-2)Man(a1-3)]Man(b1-4)GlcNAc(b1-4)GlcNAc
# Outline: as §1
# [22] = biological target: Gal(b1-4)GlcNAc(b1-2)[Gal(b1-4)GlcNAc(b1-6)]Man(a1-6)[Gal(b1-4)GlcNAc(b1-2)Man(a1-3)]Man(b1-4)GlcNAc(b1-4)[Fuc(a1-6)]GlcNAc
# Outline: as §1
binder,measurement,setting,value
B1,glycan array binding signal (z-score),[1],-0.608
same,glycan array binding signal (z-score),[2],0.01
same,glycan array binding signal (z-score),[3],-0.719
same,glycan array binding signal (z-score),[4],-1.6
same,glycan array binding signal (z-score),[5],1.59
same,glycan array binding signal (z-score),[6],-0.544
same,glycan array binding signal (z-score),[7],-0.998
same,glycan array binding signal (z-score),[8],-0.357
same,glycan array binding signal (z-score),[9],0.177
same,glycan array binding signal (z-score),[10],-1.38
same,glycan array binding signal (z-score),[11],0.253
same,glycan array binding signal (z-score),[12],0.913
same,glycan array binding signal (z-score),[13],-0.232
same,glycan array binding signal (z-score),[14],0.061
same,glycan array binding signal (z-score),[15],-0.553
same,glycan array binding signal (z-score),[16],-0.072
same,glycan array binding signal (z-score),[17],0.507
same,glycan array binding signal (z-score),[18],-0.807
same,glycan array binding signal (z-score),[19],-1.21
same,glycan array binding signal (z-score),[20],-0.986
same,glycan array binding signal (z-score),[21],-0.049
same,glycan array binding signal (z-score),[22],1.58

# An excerpt of these results, bar-delimited.
binder | measurement | setting | value
B1 | glycan array binding signal (z-score) | [21] | -0.049
same | glycan array binding signal (z-score) | [22] | 1.58
